# In the supplement of paper PMC11006884:
# Protein sequences, listed by entry. Tags and fused reporters are not part of them. Lines headed by an entry give the natural chain unless they say otherwise; changes in a name come on top.
# UniProt Q9C0C9: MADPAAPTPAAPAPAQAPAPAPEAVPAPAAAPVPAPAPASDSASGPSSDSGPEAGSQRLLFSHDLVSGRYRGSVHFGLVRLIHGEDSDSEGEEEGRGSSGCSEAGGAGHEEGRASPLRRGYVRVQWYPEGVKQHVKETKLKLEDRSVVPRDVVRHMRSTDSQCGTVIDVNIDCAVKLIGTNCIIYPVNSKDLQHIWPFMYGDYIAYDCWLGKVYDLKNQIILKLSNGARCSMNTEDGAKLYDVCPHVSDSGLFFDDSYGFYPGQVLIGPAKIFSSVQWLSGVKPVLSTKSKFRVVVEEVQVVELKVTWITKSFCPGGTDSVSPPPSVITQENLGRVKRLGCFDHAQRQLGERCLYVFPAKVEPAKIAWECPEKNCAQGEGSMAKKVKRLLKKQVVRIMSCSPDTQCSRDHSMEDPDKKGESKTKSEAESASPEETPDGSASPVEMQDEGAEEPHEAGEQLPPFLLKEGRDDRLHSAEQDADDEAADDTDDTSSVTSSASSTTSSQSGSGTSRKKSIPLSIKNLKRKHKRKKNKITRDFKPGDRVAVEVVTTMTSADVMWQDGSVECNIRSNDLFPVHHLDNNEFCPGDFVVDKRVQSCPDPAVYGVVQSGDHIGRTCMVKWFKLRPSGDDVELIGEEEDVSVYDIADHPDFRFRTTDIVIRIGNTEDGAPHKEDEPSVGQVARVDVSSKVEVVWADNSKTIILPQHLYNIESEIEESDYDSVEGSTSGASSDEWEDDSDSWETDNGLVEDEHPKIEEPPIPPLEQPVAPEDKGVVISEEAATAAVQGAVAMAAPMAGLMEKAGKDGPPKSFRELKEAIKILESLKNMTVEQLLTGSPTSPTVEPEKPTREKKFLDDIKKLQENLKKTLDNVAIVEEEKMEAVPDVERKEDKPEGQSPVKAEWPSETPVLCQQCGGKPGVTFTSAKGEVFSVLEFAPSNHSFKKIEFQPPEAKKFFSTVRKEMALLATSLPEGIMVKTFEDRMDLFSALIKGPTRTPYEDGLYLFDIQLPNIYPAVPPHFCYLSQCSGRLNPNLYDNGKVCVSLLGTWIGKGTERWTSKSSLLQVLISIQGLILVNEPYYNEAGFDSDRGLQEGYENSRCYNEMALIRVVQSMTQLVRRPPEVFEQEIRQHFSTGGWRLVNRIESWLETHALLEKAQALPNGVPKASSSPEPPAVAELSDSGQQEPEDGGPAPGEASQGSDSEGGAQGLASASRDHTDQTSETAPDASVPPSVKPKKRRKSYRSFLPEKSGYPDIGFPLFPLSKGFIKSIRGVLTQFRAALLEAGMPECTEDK
# UniProt Q9BU76: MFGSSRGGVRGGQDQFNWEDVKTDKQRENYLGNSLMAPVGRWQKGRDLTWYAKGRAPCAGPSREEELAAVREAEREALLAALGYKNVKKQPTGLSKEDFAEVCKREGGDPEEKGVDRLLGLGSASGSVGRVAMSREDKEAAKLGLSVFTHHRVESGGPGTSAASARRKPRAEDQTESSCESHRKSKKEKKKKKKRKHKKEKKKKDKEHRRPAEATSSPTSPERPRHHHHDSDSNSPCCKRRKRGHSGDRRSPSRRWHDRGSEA
# UniProt Q9BRL6: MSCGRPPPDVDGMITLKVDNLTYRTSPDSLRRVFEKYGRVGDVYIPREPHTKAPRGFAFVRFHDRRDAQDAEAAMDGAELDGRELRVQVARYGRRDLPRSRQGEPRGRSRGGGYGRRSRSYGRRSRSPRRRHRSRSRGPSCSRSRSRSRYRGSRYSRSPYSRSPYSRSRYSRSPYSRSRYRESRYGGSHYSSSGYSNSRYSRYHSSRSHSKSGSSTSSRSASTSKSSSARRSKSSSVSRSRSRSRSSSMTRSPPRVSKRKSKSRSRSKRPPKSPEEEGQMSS
# UniProt Q9GZP4: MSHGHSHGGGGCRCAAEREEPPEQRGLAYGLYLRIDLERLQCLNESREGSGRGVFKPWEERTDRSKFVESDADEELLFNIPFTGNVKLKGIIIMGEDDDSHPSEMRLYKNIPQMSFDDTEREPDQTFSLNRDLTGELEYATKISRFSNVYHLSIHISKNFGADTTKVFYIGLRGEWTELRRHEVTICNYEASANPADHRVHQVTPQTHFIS
# UniProt Q9BTW9: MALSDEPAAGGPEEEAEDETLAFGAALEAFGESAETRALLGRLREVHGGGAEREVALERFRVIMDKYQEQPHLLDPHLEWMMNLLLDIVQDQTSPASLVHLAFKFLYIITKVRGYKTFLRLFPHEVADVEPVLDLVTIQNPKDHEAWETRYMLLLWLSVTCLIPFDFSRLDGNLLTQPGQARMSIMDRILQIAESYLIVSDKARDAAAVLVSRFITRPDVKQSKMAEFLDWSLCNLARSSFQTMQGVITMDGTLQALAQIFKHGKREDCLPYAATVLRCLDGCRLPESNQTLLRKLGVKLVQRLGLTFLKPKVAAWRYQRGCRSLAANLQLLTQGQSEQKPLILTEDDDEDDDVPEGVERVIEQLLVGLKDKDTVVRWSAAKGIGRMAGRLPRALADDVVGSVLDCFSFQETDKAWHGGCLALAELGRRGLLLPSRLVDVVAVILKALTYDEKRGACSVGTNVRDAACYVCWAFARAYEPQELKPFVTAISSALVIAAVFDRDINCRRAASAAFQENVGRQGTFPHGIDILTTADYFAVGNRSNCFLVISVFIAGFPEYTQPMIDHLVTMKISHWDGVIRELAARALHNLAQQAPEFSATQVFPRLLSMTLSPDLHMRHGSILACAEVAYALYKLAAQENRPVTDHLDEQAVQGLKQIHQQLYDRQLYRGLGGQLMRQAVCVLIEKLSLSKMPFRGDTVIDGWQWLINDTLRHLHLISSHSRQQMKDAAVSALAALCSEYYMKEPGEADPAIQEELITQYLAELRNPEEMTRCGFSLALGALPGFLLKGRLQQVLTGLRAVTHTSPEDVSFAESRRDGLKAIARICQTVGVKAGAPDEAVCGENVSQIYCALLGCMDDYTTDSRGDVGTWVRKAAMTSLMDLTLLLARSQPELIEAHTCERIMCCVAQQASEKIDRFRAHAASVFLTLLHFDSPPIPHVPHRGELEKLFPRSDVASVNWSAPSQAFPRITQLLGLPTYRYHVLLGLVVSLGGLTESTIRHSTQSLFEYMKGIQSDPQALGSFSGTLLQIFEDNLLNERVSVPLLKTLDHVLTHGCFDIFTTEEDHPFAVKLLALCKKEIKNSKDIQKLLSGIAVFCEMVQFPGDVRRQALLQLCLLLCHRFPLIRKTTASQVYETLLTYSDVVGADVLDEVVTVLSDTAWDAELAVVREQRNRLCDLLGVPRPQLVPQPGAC
# UniProt Q9BZE9, whole entry, looked up: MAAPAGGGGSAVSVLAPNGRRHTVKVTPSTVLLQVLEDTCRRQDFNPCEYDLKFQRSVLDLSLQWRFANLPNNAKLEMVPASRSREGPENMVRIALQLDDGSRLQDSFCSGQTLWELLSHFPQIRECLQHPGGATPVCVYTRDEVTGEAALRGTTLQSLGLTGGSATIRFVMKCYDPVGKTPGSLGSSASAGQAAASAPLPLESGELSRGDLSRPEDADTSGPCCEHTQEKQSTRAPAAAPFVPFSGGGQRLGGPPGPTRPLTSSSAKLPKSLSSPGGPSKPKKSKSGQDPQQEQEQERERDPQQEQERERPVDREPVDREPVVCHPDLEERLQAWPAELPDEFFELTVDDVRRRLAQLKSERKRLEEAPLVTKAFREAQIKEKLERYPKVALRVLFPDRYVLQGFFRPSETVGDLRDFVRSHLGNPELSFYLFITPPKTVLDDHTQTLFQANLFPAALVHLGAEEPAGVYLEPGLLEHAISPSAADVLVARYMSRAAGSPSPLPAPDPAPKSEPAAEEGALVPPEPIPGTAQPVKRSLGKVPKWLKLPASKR
# UniProt Q9BY77: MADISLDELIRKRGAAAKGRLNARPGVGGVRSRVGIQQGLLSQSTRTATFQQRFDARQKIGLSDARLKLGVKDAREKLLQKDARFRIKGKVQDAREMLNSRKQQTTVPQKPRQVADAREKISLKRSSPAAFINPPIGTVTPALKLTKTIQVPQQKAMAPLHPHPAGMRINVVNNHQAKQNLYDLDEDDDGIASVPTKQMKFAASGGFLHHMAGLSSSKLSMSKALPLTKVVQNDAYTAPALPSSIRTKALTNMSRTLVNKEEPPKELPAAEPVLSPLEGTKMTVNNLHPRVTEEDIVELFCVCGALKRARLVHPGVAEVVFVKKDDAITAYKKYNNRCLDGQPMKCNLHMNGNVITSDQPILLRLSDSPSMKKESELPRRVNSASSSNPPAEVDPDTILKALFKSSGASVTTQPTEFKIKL
# UniProt Q9BZH6: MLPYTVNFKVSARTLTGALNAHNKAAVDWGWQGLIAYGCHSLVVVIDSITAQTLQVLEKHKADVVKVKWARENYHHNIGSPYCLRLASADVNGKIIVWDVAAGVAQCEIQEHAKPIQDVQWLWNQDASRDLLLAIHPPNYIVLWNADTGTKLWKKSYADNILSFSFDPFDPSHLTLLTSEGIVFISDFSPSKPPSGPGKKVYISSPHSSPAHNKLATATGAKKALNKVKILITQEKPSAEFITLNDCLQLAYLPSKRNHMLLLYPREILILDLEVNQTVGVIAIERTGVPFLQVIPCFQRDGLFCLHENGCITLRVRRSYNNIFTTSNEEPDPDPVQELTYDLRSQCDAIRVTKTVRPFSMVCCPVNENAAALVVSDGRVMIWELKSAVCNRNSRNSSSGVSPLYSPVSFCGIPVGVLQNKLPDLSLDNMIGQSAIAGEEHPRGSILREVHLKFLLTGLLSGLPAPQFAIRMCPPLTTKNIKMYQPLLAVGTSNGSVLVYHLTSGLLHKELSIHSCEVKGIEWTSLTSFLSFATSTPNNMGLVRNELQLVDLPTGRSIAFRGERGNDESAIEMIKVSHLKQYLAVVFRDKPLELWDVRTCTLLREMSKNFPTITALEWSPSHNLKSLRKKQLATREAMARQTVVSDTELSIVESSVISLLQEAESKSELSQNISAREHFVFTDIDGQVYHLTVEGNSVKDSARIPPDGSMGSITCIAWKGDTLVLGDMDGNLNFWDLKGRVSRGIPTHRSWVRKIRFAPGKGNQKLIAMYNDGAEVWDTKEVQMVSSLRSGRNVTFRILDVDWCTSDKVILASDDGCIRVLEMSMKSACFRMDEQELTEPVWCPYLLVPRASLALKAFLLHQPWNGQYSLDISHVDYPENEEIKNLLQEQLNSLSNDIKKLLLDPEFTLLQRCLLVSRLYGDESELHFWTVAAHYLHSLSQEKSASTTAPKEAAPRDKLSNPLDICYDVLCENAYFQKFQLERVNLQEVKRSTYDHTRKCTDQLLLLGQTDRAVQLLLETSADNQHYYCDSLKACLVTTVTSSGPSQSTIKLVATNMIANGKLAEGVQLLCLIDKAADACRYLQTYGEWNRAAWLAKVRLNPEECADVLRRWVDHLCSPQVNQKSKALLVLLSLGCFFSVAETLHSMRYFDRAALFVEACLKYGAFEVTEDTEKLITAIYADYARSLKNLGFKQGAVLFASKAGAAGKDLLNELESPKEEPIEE
# UniProt Q9BQP7: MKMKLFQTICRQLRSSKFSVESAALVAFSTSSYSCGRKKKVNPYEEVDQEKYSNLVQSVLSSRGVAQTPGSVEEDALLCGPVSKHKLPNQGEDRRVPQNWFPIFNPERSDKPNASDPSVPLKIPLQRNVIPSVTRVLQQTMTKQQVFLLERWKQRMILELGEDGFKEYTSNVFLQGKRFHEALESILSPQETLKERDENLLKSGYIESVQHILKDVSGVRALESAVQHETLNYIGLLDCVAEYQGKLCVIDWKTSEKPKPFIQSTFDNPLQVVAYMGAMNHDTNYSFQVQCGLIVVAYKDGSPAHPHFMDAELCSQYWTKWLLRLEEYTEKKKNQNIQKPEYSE
# UniProt Q9BWU0: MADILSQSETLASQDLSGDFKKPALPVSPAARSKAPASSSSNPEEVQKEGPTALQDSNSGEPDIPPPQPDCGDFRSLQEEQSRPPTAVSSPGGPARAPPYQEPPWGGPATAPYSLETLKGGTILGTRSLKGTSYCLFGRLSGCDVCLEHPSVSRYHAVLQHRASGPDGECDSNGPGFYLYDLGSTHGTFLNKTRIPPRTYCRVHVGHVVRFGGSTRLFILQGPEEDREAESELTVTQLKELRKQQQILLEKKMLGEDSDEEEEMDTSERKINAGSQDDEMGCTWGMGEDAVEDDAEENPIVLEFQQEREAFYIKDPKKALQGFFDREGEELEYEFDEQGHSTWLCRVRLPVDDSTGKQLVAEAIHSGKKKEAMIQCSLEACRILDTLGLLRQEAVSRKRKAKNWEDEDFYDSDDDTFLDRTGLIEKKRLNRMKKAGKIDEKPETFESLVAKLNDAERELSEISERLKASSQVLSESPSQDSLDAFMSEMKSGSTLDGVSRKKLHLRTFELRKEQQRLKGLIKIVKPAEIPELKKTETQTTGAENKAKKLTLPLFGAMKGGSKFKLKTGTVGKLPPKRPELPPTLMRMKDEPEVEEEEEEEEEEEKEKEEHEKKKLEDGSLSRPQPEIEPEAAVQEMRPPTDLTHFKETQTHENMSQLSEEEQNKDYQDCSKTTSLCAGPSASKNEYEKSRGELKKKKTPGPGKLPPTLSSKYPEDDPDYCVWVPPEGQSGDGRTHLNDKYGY
# Only a part is listed here, and it is no random draw.
# Compound: COC(=O)C#Cc1ccccc1 [methyl 3-phenylpropiolate]
# Experiment: log2 ratio of iodoacetamide-alkyne labeling of the cysteine site, DMSO over compound (competition); higher = stronger covalent engagement of the cysteine by the compound, active = 1 or more
# Settings: 500 µM; treatment time 1 h; system: HEK293T cell lysate
# Method in brief: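 Three replicates, each with duplicate channels, were prepared from HEK293T lysate (2 mg/mL) treated with vehicle or electrophile at 500 µM for 1 h at ambient temperature. Iodoacetamide alkyne was then applied for 1 h, and samples were clicked to sCIP-TMT reagents, pooled, trypsin-digested overnight at 37 °C, enriched on streptavidin, acid-eluted and analysed on Orbitrap Eclipse LC-MS/MS with FAIMS, with FragPipe quantification. The log2 competition ratio per cysteine is the mean control-channel divided by the mean compound-channel reporter intensity. Cysteines quantified in only one replicate were left out.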
row,Target,log2 ratio of iodoacetamide-alkyne labeling
1,UniProt Q9BXJ9_C817,inactive: -0.134
2,TNKS1BP1 C631 (UniProt Q9C0C2),inactive: 0.0951
3,UBE2O C598 (UniProt Q9C0C9),inactive: 0.166
4,PELO C218 (UniProt Q9BRX2),inactive: 0.416
5,UBE2O C406 (UniProt Q9C0C9),active: 1.46
6,FYCO1 C318 (UniProt Q9BQS8),inactive: 0.119
7,UBE2O C585 (UniProt Q9C0C9),inactive: 0.0628
8,FTO C171 (UniProt Q9C0B1),inactive: 0.392
9,UniProt Q9H1E5_C326,inactive: 0.277
10,UniProt Q9BXV9_C21,inactive: 0.0587
11,DHX36 C135 (UniProt Q9H2U1),inactive: 0.652
12,UniProt Q9BXJ9_C214,inactive: 0.2
13,UniProt Q9BU76_C58,inactive: 0.972
14,SRSF8 C3 (UniProt Q9BRL6),inactive: 0.472
15,XRN2 C296 (UniProt Q9H0D6),inactive: 0.209
16,UniProt Q9GZP4_C14,inactive: 0.308
17,UBE2O C182 (UniProt Q9C0C9),inactive: 0.354
18,TBCD C773 (UniProt Q9BTW9),inactive: 0.321
19,DIDO1 C856 (UniProt Q9BTC0),inactive: 0.609

# Copied from the results shown (2 entries):
row,Target,log2 ratio of iodoacetamide-alkyne labeling
6,FYCO1 C318 (UniProt Q9BQS8),inactive: 0.119
7,UBE2O C585 (UniProt Q9C0C9),inactive: 0.0628

# Next entries

row,Target,log2 ratio of iodoacetamide-alkyne labeling
1,UniProt Q9BXW7_C392,inactive: -0.0305
2,ASPSCR1 C224 (UniProt Q9BZE9),active: 1.02
3,TBCD C1192 (UniProt Q9BTW9),inactive: 0.0257
4,HERPUD2 C28 (UniProt Q9BSE4),inactive: 0.331
5,SSBP4 C81 (UniProt Q9BWG4),inactive: 0.752
6,POLDIP3 C301 (UniProt Q9BY77),inactive: -0.32
7,TARS2 C322 (UniProt Q9BW92),inactive: 0.0828
8,SCAPER C1301 (UniProt Q9BY12),inactive: 0.305
9,WDR11 C411 (UniProt Q9BZH6),inactive: 0.261
10,POLDIP3 C338 (UniProt Q9BY77),inactive: 0.292
11,MRPL20 C93 (UniProt Q9BYC9),inactive: -0.00836
12,KIFC1 C509 (UniProt Q9BW19),inactive: 0.348
13,UniProt Q9BQP7_C79,inactive: 0.323
14,DIDO1 C350 (UniProt Q9BTC0),inactive: 0.192
15,PUS7L C142 (UniProt Q9H0K6),inactive: -0.0378
16,SLC4A1AP C125 (UniProt Q9BWU0),inactive: 0.196
17,AMBRA1 C571 (UniProt Q9C0C7),inactive: 0.257
18,UniProt Q9BQI3_C466,inactive: 0.178
